# Results from PubChem BioAssay AID504834 (National Center for Advancing Translational Sciences (NCATS), 2011).
# About 22,000 (6.9%) of roughly 320,000 compounds were called active. Inconclusive results, whose numbers are uncertain, are shown with a selection of clear calls. Calls come from the whole dose curve; as a rule, active = well fitted inhibition curve with a large enough effect; inconclusive = small, poorly fitted or top-dose-only effect, or another doubt; inactive = no such curve, though single readings can be large or run the other way. Potencies of inconclusive entries are doubtful fits and often do not repeat.
# Experiment: Primary qHTS for delayed death inhibitors of the malarial parasite plastid, 96 hour incubation
# Conditions: P. falciparum luciferase reporter growth; series mostly up to 28.7 µM; activity change, negative = inhibition: at the top concentration
# Outline: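 Compounds incubated with erythrocytes infected by luciferase-expressing P. falciparum (2% hematocrit, 0.05% parasitemia final) for 96 hours, 37 C in 5% CO2. Growth inhibition scored as decreased luciferase luminescence.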
# % is set by controls: 0 for no effect and ±100 for the full control effect; potency is the fitted concentration of half-maximal effect.
Compound,Potency,"activity change, negative = inhibition"
CN(CC(=O)Nc1cccc(S(=O)(=O)NC2=NCCC2)c1)Cc1ccccc1Cl,"inconclusive: 9.28 µM [inhibitor, single point]",
O=C(Nc1cccc([N+](=O)[O-])c1)c1cnccn1,"inconclusive: 16.5 µM [inhibitor, single point]",
O=C(Nc1c(Cl)cc(Cl)cc1C(=O)NCc1cccnc1)c1ccc(Cl)cc1Cl,,inactive: 17.8%
COc1cc(C2C(C#N)=C(N)Oc3c2ccc2ccccc32)ccc1OCC(=O)Nc1ccccc1C (stereo unspecified),"inconclusive: 9.28 µM [inhibitor, partial curve, poor fit]",
COc1cccc(C(=O)NCC(c2cccs2)N2CCc3ccccc32)c1 (stereo unspecified),"inconclusive: 10.4 µM [inhibitor, single point]",
Cc1ccc(C)c(C(=O)CCC(=O)N2CCN(c3ncccn3)CC2)c1,"inconclusive: 7.38 µM [inhibitor, partial curve, poor fit]",
O=C(CC1Sc2ccccc2NC1=O)OC(C(=O)NCCc1ccccc1)c1cccnc1 (stereo unspecified),,inactive: 8.72%
Cc1ccc(-c2nn3c(C)nnc3c3ccccc23)cc1S(=O)(=O)NCCN1CCOCC1,"inconclusive: 9.28 µM [inhibitor, partial curve, poor fit]",
COc1ccc([C@@H](OC)[C@@]2(Cc3ccc(O)cc3)N=C(N)N(C)C2=O)cc1,,inactive: -8.13%
CCN(CC)CCNC(=O)C1c2ccccc2C(=O)N(CCOC)C1c1ccc(F)cc1 (stereo unspecified),"inconclusive: 11.7 µM [inhibitor, single point]",
COc1cc(NC(=O)c2ccc(F)cc2)ccc1NC(=O)c1cc2ccccc2o1,,inactive: 273%
Cc1ccc(-c2nc(NC(=O)CSc3cc(C)c4ccccc4n3)ns2)cc1,active: 14.7 µM,
CCOP(=O)(OCC)/C(C#N)=C/c1c[nH]c2ccccc12,"inconclusive: 18.5 µM [inhibitor, single point]",
O=C1CN(C(=O)c2cc([N+](=O)[O-])ccc2Cl)C(c2ccc(F)cc2)c2cc(F)ccc2N1 (stereo unspecified),"inconclusive: 20.8 µM [inhibitor, partial curve, poor fit]",
O=C(O)c1cc(=O)c2ccccc2o1,"inconclusive: 2.13 µM [inhibitor, partial curve, poor fit]",
O=C(Cc1ccc([N+](=O)[O-])cc1)Nc1ccc(Br)cn1,"inconclusive: 16.5 µM [inhibitor, partial curve, poor fit]",
Cc1[nH]nc2c1C(c1ccc(-c3ccc(Cl)cc3)o1)C(C#N)=C(N)O2 (stereo unspecified),"inconclusive: 11.7 µM [inhibitor, single point]",
CCOc1ccc(-c2cc(CCCC(=O)Nc3cc(OC)ccc3OC)no2)cc1,"inconclusive: 10.4 µM [inhibitor, single point]",
CN1CCN(c2ccc(Cl)cc2NC(=O)c2ccc(=O)n(C)n2)CC1,"inconclusive: 8.28 µM [inhibitor, partial curve, poor fit]",
C(=C\n1nnc2ccccc21)/c1ccc[nH]1,,inactive: 39.7%
CC(C)Oc1ccc(S(=O)(=O)N2CCOCC2)cc1NC(=O)C1CSC2(C)CCC(=O)N12 (stereo unspecified),"inconclusive: 2.62 µM [inhibitor, partial curve]",
Cc1c(N=C2NN=C(c3c[nH]c4ccccc34)CS2)c(=O)n(-c2ccccc2)n1C,"inconclusive: 16.5 µM [inhibitor, partial curve, poor fit]",

Compound,Potency,"activity change, negative = inhibition"
Cc1cccc(CCNC(=O)CCS(=O)(=O)c2ccc(Br)cc2)c1,"inconclusive: 0.0165 µM [inhibitor, full curve, poor fit]",
COc1cc2c(cc1OC)CN(C(=O)CN1CCN(S(=O)(=O)c3ccccc3)CC1)CC2,active: 13.1 µM,
Cc1ccc(OCCCN2CCCC2)c(C)c1,"inconclusive: 13.1 µM [inhibitor, partial curve, poor fit]",
Cc1nc2c(-c3ccc(F)cc3)c(C)nn2c(C)c1CCC(=O)N1CCN(c2ccccc2)CC1,"inconclusive: 3.7 µM [inhibitor, single point]",
CCCOC(=O)c1ccc(NC(=O)c2cccc(S(=O)(=O)N3CCN(C(C)=O)CC3)c2)cc1,"inconclusive: 11.7 µM [inhibitor, partial curve, poor fit]",
Cc1ccc(C(c2sc3ncnn3c2O)N2CC(C)CC(C)C2)cc1 (stereo unspecified),"inconclusive: 18.5 µM [inhibitor, partial curve, poor fit]",
CCOc1ccc(N(CC(=O)NCc2ccco2)S(C)(=O)=O)cc1,,inactive: -0.131%
COc1ccc(CCNC(=S)NC(=O)c2c(-c3ccccc3Cl)noc2C)cc1OC,"inconclusive: 1.17 µM [inhibitor, partial curve, poor fit]",
Cc1ccc(OCCn2c(CCCO)nc3ccccc32)cc1,,inactive: 71.7%
O=C(Nc1nc2c(s1)CCCC2)C1COc2ccccc2O1 (stereo unspecified),"inconclusive: 18.5 µM [inhibitor, single point]",
Cc1cc([N+](=O)[O-])nn1CC(=O)N1CCCc2ccccc21,"inconclusive: 4.15 µM [inhibitor, single point]",
O=C(c1ccc(Cn2c(=O)[nH]c3ccccc3c2=O)cc1)N1CCN(c2ccc(Cl)cc2)CC1,"inconclusive: 0.657 µM [inhibitor, full curve]",
O=C(Cc1ccc(Cl)c(Cl)c1)NC1CCCCCC1,"inconclusive: 18.5 µM [inhibitor, single point]",
Cc1ccc(-c2c[n+](CC(=O)N3c4ccccc4Sc4ccccc43)c3n2CCC3)cc1,"inconclusive: 0.37 µM [inhibitor, full curve, poor fit]",
CC(C)c1ccc(S(=O)(=O)c2ccc(NN)cc2)cc1,"inconclusive: 18.5 µM [inhibitor, single point]",
O=C(CCSc1nc(-c2ccco2)cc(C(F)(F)F)n1)NCCc1ccccc1,,inactive: 3.27%
CN(Cc1ccccc1)C(=O)COc1ccc(-c2nnco2)cc1,"inconclusive: 18.5 µM [inhibitor, single point]",
CCn1c(SCC(=O)Nc2cc(C)on2)nnc1-c1cccnc1,"inconclusive: 4.65 µM [inhibitor, partial curve]",
CCCCn1c(-c2ccc(Cl)c(Cl)c2)nc2cc3[nH]c(=O)c(C(C)C)nc3cc21,active: 4.65 µM,
O=C(CCCC(=O)N(c1ccc2c(c1)OCCO2)C(C(=O)NC1CCCCC1)c1ccc(F)cc1)Nc1ccccn1 (stereo unspecified),active: 10.4 µM,
CCOC(=O)C1(CC2CC2)CCN(Cc2cc(Cl)c(O)c(OC)c2)CC1,active: 0.37 µM,
COc1ccc(Oc2cc(C)nc(Cl)n2)nn1,"inconclusive: 18.5 µM [inhibitor, single point]",

Compound,Potency,"activity change, negative = inhibition"
CN1CCN(CC(=O)NC(=O)NC2CCCCC2)CC1,,inactive: 15.8%
O=C(NNC(=S)NCc1ccc(Cl)cc1)c1ccc2c(c1)OCO2,"inconclusive: 11.7 µM [inhibitor, single point]",
Nc1c(N(Cc2ccco2)C(=O)c2cccc(Cl)c2)c(=O)[nH]c(=O)n1Cc1ccccc1,"inconclusive: 18.5 µM [inhibitor, single point]",
COc1ccc([C@@H]2CC=C(C(=O)O)[C@H](c3ccc(F)cc3)N2S(=O)(=O)c2ccc(Cl)cc2)cc1,"inconclusive: 14.7 µM [inhibitor, partial curve, poor fit]",
COC(=O)COc1ccc(NC(=O)C(c2ccccc2)c2ccccc2)cc1,"inconclusive: 14.7 µM [inhibitor, single point]",
COc1ccccc1N1CCN(c2cc(=O)n(Cc3ccc(F)cc3)c(=O)[nH]2)CC1,"inconclusive: 4.65 µM [inhibitor, partial curve, poor fit]",
CCCn1c(NC(=O)C2COc3ccccc3O2)nc2ccccc21 (stereo unspecified),"inconclusive: 10.4 µM [inhibitor, single point]",
CC(=O)NS(=O)(=O)c1ccc(N=c2ssc3c2-c2cc(C)c(C)cc2NC3(C)C)cc1,"inconclusive: 18.5 µM [inhibitor, single point]",
Cc1cccc(-n2c(SCC(=O)NCc3ccco3)nc3ccccc3c2=O)c1,,inactive: -25.4%
COc1ccccc1-c1oc2ccccc2c1C#CC1(N)CCCCC1,active: 3.29 µM,
O=c1oc2ccccc2n1CCCCCn1c(=O)oc2ccccc21,"inconclusive: 9.28 µM [inhibitor, partial curve]",
S=C(Sc1ccc(Cl)cc1)Sc1ccc(Cl)cc1,"inconclusive: 2.62 µM [inhibitor, full curve]",
O=C(CCl)NNc1nc(-c2ccccc2)c2cc(Cl)ccc2n1,"inconclusive: 4.15 µM [inhibitor, single point]",
CC(C)(C)C(=O)Oc1cc(N)n(S(=O)(=O)c2ccccc2)n1,"inconclusive: 11.7 µM [inhibitor, single point]",
Cn1cnc([N+](=O)[O-])c1Oc1cccc2ccccc12,"inconclusive: 16.5 µM [inhibitor, partial curve, poor fit]",
CCCC(O)(c1ccc(OC)cc1)C(CN(C)C)c1ccccc1 (stereo unspecified),active: 14.7 µM,
CCS(=O)(=O)Nc1c(C)n(C)n(-c2ccccc2)c1=O,"inconclusive: 10.4 µM [inhibitor, partial curve, poor fit]",
CC(=O)Nc1ccc(NC(=O)CSc2ccc3nnc(CCNS(=O)(=O)c4ccc(C)cc4)n3n2)cc1,,inactive: -2.19%
CN(C(=O)Nc1ccc(C(C)(C)C)cc1)C1CCCCC1,,inactive: -0.946%
CCn1c(SCC(=O)c2ccc(O)c(O)c2)nnc1-c1ccccc1,"inconclusive: 18.5 µM [inhibitor, single point]",
COC(=O)C1c2ccccc2-c2ccccc21,,inactive: -3.38%
CCc1ccc(C(=O)COC(=O)c2nn(C)c(=O)c3ccccc23)cc1,,inactive: -29.2%

# 12 entries out of the list, arranged by number of heavy atoms, falling:
Compound,Potency,"activity change, negative = inhibition"
CC(=O)Nc1ccc(NC(=O)CSc2ccc3nnc(CCNS(=O)(=O)c4ccc(C)cc4)n3n2)cc1,,inactive: -2.19%
COc1ccc([C@@H]2CC=C(C(=O)O)[C@H](c3ccc(F)cc3)N2S(=O)(=O)c2ccc(Cl)cc2)cc1,"inconclusive: 14.7 µM [inhibitor, partial curve, poor fit]",
CC(=O)NS(=O)(=O)c1ccc(N=c2ssc3c2-c2cc(C)c(C)cc2NC3(C)C)cc1,"inconclusive: 18.5 µM [inhibitor, single point]",
Cc1cccc(-n2c(SCC(=O)NCc3ccco3)nc3ccccc3c2=O)c1,,inactive: -25.4%
CCc1ccc(C(=O)COC(=O)c2nn(C)c(=O)c3ccccc23)cc1,,inactive: -29.2%
CCCn1c(NC(=O)C2COc3ccccc3O2)nc2ccccc21 (stereo unspecified),"inconclusive: 10.4 µM [inhibitor, single point]",
O=C(NNC(=S)NCc1ccc(Cl)cc1)c1ccc2c(c1)OCO2,"inconclusive: 11.7 µM [inhibitor, single point]",
O=C(CCl)NNc1nc(-c2ccccc2)c2cc(Cl)ccc2n1,"inconclusive: 4.15 µM [inhibitor, single point]",
CC(C)(C)C(=O)Oc1cc(N)n(S(=O)(=O)c2ccccc2)n1,"inconclusive: 11.7 µM [inhibitor, single point]",
Cn1cnc([N+](=O)[O-])c1Oc1cccc2ccccc12,"inconclusive: 16.5 µM [inhibitor, partial curve, poor fit]",
S=C(Sc1ccc(Cl)cc1)Sc1ccc(Cl)cc1,"inconclusive: 2.62 µM [inhibitor, full curve]",
COC(=O)C1c2ccccc2-c2ccccc21,,inactive: -3.38%
